Assay results as given in the supplement of paper PMC10849652.
The list shows a part of the results.

Chains of the proteins cited; added tags and fusions are not shown. Lines headed by an entry give the natural chain unless they say otherwise; changes in a name come on top.
UniProt Q9BRX2, whole entry, looked up: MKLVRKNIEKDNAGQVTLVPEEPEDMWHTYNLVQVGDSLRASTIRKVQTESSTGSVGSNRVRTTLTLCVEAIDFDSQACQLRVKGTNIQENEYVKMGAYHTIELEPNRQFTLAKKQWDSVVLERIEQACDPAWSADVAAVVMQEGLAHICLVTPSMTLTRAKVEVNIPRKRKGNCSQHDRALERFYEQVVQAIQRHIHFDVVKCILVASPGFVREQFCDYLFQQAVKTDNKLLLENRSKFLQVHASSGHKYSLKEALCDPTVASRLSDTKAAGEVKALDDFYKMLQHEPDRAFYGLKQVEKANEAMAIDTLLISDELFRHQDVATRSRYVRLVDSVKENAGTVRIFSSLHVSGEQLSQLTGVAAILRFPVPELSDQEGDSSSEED
UniProt Q96KB5: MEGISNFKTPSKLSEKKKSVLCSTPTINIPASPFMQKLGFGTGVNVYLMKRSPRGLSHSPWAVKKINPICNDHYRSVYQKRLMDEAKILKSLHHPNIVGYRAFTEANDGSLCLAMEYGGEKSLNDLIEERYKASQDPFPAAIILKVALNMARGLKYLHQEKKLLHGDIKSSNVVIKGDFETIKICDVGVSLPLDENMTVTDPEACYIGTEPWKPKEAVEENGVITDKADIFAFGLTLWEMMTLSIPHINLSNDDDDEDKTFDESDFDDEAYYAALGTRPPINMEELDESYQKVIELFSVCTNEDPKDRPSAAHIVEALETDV
UniProt P40425: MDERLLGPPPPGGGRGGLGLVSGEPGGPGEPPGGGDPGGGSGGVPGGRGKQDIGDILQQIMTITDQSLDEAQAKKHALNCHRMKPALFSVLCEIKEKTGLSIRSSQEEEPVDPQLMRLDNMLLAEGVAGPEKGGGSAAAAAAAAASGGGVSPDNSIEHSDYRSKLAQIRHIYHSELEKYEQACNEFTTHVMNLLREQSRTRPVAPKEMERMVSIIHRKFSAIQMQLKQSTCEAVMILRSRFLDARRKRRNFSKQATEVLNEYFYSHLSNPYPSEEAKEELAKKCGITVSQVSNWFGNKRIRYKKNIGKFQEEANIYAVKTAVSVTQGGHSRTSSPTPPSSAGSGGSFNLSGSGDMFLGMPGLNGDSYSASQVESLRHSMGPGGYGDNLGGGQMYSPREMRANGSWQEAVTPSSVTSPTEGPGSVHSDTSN
UniProt Q9NQP4, whole entry, looked up: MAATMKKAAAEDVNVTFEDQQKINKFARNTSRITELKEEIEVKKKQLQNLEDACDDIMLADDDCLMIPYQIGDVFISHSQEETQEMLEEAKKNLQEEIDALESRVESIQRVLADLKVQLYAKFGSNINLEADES
UniProt Q14690: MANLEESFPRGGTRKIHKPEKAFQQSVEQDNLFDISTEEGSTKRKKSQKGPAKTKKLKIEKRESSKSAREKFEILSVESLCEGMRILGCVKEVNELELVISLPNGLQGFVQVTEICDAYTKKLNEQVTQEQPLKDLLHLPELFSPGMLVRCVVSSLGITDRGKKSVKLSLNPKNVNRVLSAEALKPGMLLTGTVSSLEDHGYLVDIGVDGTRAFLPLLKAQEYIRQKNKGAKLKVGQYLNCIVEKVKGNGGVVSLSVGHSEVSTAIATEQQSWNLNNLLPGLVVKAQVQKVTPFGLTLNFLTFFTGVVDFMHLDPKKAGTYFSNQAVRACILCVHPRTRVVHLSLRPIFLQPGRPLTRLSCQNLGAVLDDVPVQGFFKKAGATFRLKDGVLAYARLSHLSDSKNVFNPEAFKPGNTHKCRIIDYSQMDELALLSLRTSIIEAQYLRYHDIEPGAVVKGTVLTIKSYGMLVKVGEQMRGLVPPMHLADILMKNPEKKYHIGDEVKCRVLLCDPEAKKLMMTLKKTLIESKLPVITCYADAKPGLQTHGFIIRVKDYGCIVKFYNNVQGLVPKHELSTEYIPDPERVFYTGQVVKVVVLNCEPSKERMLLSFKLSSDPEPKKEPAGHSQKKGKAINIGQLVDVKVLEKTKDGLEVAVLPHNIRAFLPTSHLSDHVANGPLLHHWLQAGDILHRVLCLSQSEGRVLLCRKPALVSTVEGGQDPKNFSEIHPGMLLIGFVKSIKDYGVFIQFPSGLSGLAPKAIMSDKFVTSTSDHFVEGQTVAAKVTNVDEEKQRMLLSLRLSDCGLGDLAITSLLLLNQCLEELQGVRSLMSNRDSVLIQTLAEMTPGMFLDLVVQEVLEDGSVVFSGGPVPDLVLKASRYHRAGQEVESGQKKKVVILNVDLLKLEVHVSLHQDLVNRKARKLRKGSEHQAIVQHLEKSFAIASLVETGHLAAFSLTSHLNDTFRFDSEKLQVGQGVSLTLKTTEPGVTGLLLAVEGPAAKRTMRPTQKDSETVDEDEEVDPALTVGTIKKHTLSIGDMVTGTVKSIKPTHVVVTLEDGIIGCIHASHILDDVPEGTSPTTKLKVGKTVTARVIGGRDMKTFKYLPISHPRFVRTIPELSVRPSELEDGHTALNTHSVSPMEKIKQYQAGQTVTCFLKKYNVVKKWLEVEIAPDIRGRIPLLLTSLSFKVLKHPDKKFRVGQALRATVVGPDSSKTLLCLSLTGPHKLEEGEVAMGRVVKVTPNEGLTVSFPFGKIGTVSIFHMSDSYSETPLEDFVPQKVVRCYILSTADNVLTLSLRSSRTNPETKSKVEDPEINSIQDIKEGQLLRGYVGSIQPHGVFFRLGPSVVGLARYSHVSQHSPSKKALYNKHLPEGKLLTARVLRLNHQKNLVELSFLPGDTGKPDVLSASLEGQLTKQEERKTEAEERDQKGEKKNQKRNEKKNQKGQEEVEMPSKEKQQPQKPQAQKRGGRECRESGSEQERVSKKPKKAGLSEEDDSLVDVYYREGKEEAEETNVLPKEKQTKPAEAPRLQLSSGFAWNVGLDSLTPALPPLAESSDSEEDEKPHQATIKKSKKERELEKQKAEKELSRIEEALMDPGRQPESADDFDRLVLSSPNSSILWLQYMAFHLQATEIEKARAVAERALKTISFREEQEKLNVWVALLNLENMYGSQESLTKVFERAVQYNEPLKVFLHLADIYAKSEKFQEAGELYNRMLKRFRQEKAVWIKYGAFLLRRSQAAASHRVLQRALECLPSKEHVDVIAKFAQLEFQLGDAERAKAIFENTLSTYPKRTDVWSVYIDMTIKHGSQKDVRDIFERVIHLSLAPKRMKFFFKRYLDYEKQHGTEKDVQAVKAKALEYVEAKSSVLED
UniProt Q16875: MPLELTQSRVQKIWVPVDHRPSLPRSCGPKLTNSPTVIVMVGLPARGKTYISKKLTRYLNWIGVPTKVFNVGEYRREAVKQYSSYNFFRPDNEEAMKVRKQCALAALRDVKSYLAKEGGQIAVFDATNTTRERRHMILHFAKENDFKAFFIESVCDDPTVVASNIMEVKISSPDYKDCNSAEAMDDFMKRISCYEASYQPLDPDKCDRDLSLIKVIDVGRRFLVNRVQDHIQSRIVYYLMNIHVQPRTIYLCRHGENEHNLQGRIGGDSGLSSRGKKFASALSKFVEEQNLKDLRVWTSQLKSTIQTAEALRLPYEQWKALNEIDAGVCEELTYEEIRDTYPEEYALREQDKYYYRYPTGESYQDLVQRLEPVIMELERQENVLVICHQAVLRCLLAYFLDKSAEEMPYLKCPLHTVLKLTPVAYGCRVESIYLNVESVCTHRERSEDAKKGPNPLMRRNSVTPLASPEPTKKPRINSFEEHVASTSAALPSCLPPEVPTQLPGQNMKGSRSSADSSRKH
UniProt Q9UKL6: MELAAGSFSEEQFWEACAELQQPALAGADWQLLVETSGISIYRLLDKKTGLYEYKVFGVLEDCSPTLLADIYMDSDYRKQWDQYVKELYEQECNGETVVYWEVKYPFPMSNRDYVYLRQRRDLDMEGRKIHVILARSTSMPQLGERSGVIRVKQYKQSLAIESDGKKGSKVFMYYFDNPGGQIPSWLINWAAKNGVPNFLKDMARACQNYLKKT
UniProt Q14554: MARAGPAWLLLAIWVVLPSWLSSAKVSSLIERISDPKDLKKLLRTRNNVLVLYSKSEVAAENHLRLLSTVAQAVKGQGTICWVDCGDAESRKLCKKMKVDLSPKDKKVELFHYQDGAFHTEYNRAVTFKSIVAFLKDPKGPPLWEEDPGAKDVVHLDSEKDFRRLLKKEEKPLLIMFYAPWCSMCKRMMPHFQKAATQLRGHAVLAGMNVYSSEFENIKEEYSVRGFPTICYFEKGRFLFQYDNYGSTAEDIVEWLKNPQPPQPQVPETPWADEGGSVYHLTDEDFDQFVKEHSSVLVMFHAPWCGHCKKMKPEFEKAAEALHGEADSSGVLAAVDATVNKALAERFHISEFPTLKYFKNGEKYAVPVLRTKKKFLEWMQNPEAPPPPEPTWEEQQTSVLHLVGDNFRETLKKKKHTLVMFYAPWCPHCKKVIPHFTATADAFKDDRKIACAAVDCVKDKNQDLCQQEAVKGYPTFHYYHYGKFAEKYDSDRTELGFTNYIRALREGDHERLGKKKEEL
UniProt Q15084: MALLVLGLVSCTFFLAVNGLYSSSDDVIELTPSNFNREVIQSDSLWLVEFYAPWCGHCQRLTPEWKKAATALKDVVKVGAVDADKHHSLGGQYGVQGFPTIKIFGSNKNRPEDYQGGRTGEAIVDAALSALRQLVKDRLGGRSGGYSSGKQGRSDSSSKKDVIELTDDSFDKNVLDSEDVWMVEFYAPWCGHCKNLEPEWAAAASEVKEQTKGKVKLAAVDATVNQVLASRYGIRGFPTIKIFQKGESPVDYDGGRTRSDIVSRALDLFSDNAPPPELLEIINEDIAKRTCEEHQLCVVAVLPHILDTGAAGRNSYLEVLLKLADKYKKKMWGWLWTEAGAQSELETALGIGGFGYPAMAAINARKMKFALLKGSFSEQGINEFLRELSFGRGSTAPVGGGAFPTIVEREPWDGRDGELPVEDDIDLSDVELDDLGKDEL
UniProt P30039: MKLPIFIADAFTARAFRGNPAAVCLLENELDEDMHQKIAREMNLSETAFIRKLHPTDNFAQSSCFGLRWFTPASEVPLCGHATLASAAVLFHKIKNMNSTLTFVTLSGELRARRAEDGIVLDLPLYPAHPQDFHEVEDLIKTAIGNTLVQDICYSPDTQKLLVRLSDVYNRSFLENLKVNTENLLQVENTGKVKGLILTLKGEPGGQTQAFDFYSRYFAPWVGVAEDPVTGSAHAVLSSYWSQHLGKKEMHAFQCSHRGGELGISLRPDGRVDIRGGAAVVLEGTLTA
UniProt O00151: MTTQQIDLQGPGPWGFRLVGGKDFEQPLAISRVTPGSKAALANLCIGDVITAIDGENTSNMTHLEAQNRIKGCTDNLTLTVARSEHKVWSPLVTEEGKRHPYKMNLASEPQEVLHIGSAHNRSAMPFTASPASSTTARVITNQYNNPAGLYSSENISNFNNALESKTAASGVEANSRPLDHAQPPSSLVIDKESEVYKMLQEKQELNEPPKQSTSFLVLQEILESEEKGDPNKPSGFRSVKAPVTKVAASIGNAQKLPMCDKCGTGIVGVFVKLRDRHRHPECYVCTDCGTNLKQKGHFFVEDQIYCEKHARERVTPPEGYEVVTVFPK
UniProt Q8NBM8: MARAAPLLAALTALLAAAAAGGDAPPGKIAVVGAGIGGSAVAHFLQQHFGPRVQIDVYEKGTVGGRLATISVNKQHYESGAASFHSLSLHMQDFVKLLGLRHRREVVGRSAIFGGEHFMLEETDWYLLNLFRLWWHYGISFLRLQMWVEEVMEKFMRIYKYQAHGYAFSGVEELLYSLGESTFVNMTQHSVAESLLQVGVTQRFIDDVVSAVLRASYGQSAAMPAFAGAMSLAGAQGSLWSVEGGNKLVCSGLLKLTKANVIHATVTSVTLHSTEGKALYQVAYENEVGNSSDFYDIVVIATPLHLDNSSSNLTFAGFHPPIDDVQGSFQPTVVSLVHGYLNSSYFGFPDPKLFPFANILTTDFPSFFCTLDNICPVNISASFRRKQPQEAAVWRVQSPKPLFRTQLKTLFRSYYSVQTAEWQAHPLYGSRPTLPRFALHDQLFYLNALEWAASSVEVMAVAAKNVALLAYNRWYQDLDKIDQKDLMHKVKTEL
UniProt P50479: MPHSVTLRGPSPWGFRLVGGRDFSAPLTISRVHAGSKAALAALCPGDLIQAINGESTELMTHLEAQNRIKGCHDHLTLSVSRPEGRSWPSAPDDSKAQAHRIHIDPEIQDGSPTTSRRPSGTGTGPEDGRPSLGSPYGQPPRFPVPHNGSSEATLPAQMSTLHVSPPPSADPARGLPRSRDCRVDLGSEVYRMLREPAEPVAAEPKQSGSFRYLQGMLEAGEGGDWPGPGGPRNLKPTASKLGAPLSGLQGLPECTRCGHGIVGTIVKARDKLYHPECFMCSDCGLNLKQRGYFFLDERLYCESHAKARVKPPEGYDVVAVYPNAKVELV

Key:
Experiment in all cases: log2 fold change, soluble protein after heating vs DMSO (PISA); higher = thermal stabilisation; K562 lysate, 10 uM; active = over 0.2 and 3.5 SD of the protein, either way, in both replicates (recomputed)
ibrutinib = compound: C=CC(=O)N1CCC[C@@H](n2nc(-c3ccc(Oc4ccccc4)cc3)c3c(N)ncnc32)C1 [ibrutinib]
Summary of the method: (§1)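 Quantification was by TMTpro 16plex LC-MS/MS with equalised channel sums, applied to the supernatant after 21,000xg for 90 min. Samples were crude K562 extract at 1 mg/mL protein in PBS pH 7.4 with 1 mM MgCl2, treated with 10 μM compound for 30 min, heated for 3 min across 48°C-58°C, pooled and brought to 0.5% NP-40 at 4°C. Values are log-two fold changes in thermal stability relative to solvent controls, from duplicates.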

[1] = compound: CC(=O)c1cnc2ccc(-c3cc(Cl)c(O)c(Cl)c3)nc2c1N[C@H]1CC[C@H](CN(C)C)CC1
Summary of the method: as §1

ralimetinib = compound: CC(C)(C)Cn1c(N)nc2ccc(-c3[nH]c(C(C)(C)C)nc3-c3ccc(F)cc3)nc21 [ralimetinib]
Summary of the method: as §1

[2] = compound: CC(C)(O)CC(=O)NCCn1ccc2ncnc(Nc3ccc(Oc4cccc(C(F)(F)F)c4)c(Cl)c3)c21
Summary of the method: as §1

[3] = compound: CC(C)C1=C2N=C(C=C(N2N=C1)NCC3=CC=CC=C3)NCCCCCCN
Summary of the method: as §1

[4] = compound: CC1=C(C(CC(=O)N1)C2=CC=C(C=C2)C(F)(F)F)C(=O)NC3=C(C=C4C(=C3)C=NN4)F
Summary of the method: as §1

[5] = compound: CC1=C(C2=C(C=C1)C(=O)C3=CC=CC=C3N2CCCN)C
Summary of the method: as §1

[6] = compound: CC1=C(C=C(C=C1)NC(=O)C2=CC(=CC=C2)C(C)(C)C#N)NC3=CC4=C(C=C3)N=CN(C4=O)C
Summary of the method: as §1

[7] = compound: CC1=C(C=C(C=C1)NC(=O)C2=CC(=CC=C2)N(C)C)NC(=O)C3=CC=C(C=C3)O
Summary of the method: as §1

[8] = compound: CC1=CC=C(C=C1)SC2=C3C=C(SC3=CN=C2)C(=O)N
Summary of the method: as §1

vemurafenib = compound: CCCS(=O)(=O)Nc1ccc(F)c(C(=O)c2c[nH]c3ncc(-c4ccc(Cl)cc4)cc23)c1F [vemurafenib]
Summary of the method: as §1

[9] = compound: CCCS(=O)(=O)Nc1ccc(F)c(C(=O)c2c[nH]c3ncc(Cl)cc23)c1F
Summary of the method: as §1

barasertib = compound: CCN(CCCOc1ccc2c(Nc3cc(CC(=O)Nc4cccc(F)c4)[nH]n3)ncnc2c1)CCOP(=O)(O)O [barasertib]
Summary of the method: as §1

[10] = compound: CC[C@@H]1C(=O)N(C)c2cnc(Nc3ccc(C(=O)NC4CCN(C)CC4)cc3OC)nc2N1C1CCCC1
Summary of the method: as §1

volasertib = compound: CC[C@@H]1C(=O)N(C)c2cnc(Nc3ccc(C(=O)N[C@H]4CC[C@H](N5CCN(CC6CC6)CC5)CC4)cc3OC)nc2N1C(C)C [volasertib]
Summary of the method: as §1

[11] = compound: CCn1c(C(=O)N(C2CC2)C2CC2)cc2c3c(ncn3C)c(Nc3cc(C)n(C)n3)nc21
Summary of the method: as §1

[12] = compound: CCn1cc(-c2ccnc3[nH]c(-c4cccc(CN(C)C)c4)cc23)c(-c2ccc(NC(=O)N(C)C)cc2)n1
Summary of the method: as §1

[13] = compound: CN1CCC(CNc2ccc3ncc(-c4cccc(OC(F)(F)F)c4)n3n2)CC1
Summary of the method: as §1

saracatinib = compound: CN1CCN(CCOc2cc(OC3CCOCC3)c3c(Nc4c(Cl)ccc5c4OCO5)ncnc3c2)CC1 [saracatinib]
Summary of the method: as §1

sotrastaurin = compound: CN1CCN(c2nc(C3=C(c4c[nH]c5ccccc45)C(=O)NC3=O)c3ccccc3n2)CC1 [sotrastaurin]
Summary of the method: as §1

Measured: log2 fold change

PELO (UniProt Q9BRX2)
inactive: ibrutinib 0.034 | [1] -0.004 | ralimetinib 0.04 | [2] -0.035 | [3] 0.005 | [4] -0.02 | [5] -0.012 | [6] -0.005 | [7] 0.001 | [8] 0.002 | vemurafenib 0 | [9] 0.021 | barasertib 0.037 | [10] -0.115 | volasertib -0.066 | [11] -0.014 | [13] -0.183 | saracatinib -0.001 | sotrastaurin -0.018
active: [12] 0.404

PBK (UniProt Q96KB5)
inactive: ibrutinib 0.006 | [1] -0.007 | ralimetinib 0.005 | [2] -0.005 | [3] 0.029 | [4] -0.008 | [5] 0.015 | [6] 0.006 | [7] -0.013 | [8] 0.019 | vemurafenib -0.006 | [9] 0.002 | barasertib -0.009 | [10] -0.069 | volasertib -0.033 | [11] 0.039 | [12] 0.043 | [13] -0.017 | saracatinib -0.018 | sotrastaurin -0.015

PBX2 (UniProt P40425)
inactive: ibrutinib -0.012 | [1] 0.058 | ralimetinib -0.017 | [2] 0 | [3] 0.048 | [4] 0.044 | [5] -0.005 | [6] 0.052 | [7] 0.006 | [8] 0.012 | vemurafenib 0.015 | [9] 0.073 | barasertib 0.016 | [10] -0.016 | volasertib 0.028 | [11] -0.004 | [12] -0.053 | [13] 0 | saracatinib 0.027 | sotrastaurin 0.033

PFDN4 (UniProt Q9NQP4)
inactive: ibrutinib 0.091 | [1] 0.024 | ralimetinib -0.083 | [2] -0.037 | [3] 0.019 | [4] -0.015 | [5] 0.086 | [6] -0.045 | [7] 0.015 | [8] 0.015 | vemurafenib 0.008 | [9] 0.031 | barasertib -0.013 | [10] 0.012 | volasertib 0.008 | [11] -0.018 | [12] 0.063 | [13] 0.028 | saracatinib -0.22 | sotrastaurin 0.059

PDHX (UniProt O00330)
inactive: ibrutinib 0.005 | [1] 0.004 | ralimetinib -0.013 | [2] -0.009 | [3] 0.007 | [4] 0.014 | [5] 0 | [6] 0.044 | [7] -0.016 | [8] 0.023 | vemurafenib 0.003 | [9] 0.015 | barasertib 0.013 | [10] -0.02 | volasertib 0.029 | [11] 0.015 | [12] 0.038 | [13] -0.057 | saracatinib -0.001 | sotrastaurin -0.018

PCLO (UniProt Q9Y6V0)
inactive: ibrutinib 0.001 | [1] -0.033 | ralimetinib -0.038 | [2] -0.137 | [3] 0.017 | [4] -0.06 | [5] -0.076 | [6] 0.184 | [7] -0.014 | [8] -0.031 | vemurafenib 0.068 | [9] 0.018 | barasertib 0.03 | [10] 0.144 | volasertib -0.015 | [11] -0.03 | [12] -0.518 | [13] 0.364 | saracatinib -0.045 | sotrastaurin -0.008

PDCD11 (UniProt Q14690)
inactive: ibrutinib 0.035 | [1] -0.012 | ralimetinib 0.02 | [2] -0.055 | [3] -0.022 | [4] 0.013 | [5] -0.006 | [6] -0.009 | [7] 0.06 | [8] 0.008 | vemurafenib 0.111 | [9] 0.037 | barasertib -0.067 | [10] -0.076 | volasertib -0.033 | [11] 0.019 | [12] -0.107 | [13] 0.023 | saracatinib 0.023 | sotrastaurin 0.018

PFKFB3 isoform 4 (UniProt Q16875)
inactive: ibrutinib -0.015 | [1] 0.11 | ralimetinib 0.044 | [2] -0.003 | [3] 0 | [4] 0.027 | [5] 0.003 | [6] 0.011 | [7] -0.019 | [8] 0.148 | vemurafenib -0.022 | [9] 0.134 | barasertib 0.003 | [10] -0.003 | volasertib 0.067 | [11] 0.037 | [12] 0.003 | [13] -0.046 | saracatinib -0.024 | sotrastaurin 0.034

PCTP (UniProt Q9UKL6)
inactive: ibrutinib 0.009 | [1] -0.009 | ralimetinib -0.014 | [2] -0.087 | [3] -0.04 | [4] 0.001 | [5] 0.048 | [6] 0.023 | [7] 0.021 | [8] -0.038 | vemurafenib -0.014 | [9] -0.01 | barasertib 0.024 | [10] -0.002 | volasertib -0.006 | [11] -0.035 | [12] -0.148 | [13] 0.013 | saracatinib -0.009 | sotrastaurin -0.015

PDIA5 (UniProt Q14554)
inactive: ibrutinib 0.014 | [1] -0.045 | ralimetinib 0.005 | [2] -0.04 | [3] 0.003 | [4] 0.009 | [5] -0.021 | [6] -0.012 | [7] 0.001 | [8] -0.005 | vemurafenib 0.018 | [9] 0.013 | barasertib -0.006 | [10] 0.012 | volasertib 0.014 | [11] -0.017 | [12] -0.07 | [13] -0.01 | saracatinib -0.002 | sotrastaurin 0.022

PDIA6 isoform 2 (UniProt Q15084)
inactive: ibrutinib -0.022 | [1] -0.027 | ralimetinib -0.049 | [2] -0.01 | [3] -0.012 | [4] -0.028 | [5] -0.011 | [6] -0.028 | [7] 0.018 | [8] -0.024 | vemurafenib -0.005 | [9] -0.028 | barasertib -0.03 | [10] 0.033 | volasertib 0.005 | [11] -0.005 | [12] 0.047 | [13] -0.028 | saracatinib -0.019 | sotrastaurin -0.005

PBLD (UniProt P30039)
inactive: ibrutinib 0.085 | [1] 0.021 | ralimetinib -0.082 | [2] -0.093 | [3] -0.009 | [4] -0.038 | [5] 0.034 | [6] 0.07 | [7] -0.116 | [8] -0.007 | vemurafenib 0.08 | [9] -0.014 | barasertib -0.019 | [10] -0.132 | volasertib -0.055 | [11] 0.122 | [12] -0.097 | [13] -0.063 | saracatinib -0.092 | sotrastaurin 0.001

PDLIM1 (UniProt O00151)
inactive: ibrutinib -0.005 | [1] -0.009 | ralimetinib -0.017 | [2] -0.004 | [3] 0.01 | [4] -0.015 | [5] -0.007 | [6] -0.002 | [7] -0.005 | [8] -0.024 | vemurafenib 0.014 | [9] 0.004 | barasertib -0.04 | [10] 0.085 | volasertib 0.035 | [11] -0.042 | [12] 0.057 | [13] -0.017 | saracatinib -0.009 | sotrastaurin -0.015

PBXIP1 (UniProt Q96AQ6)
inactive: ibrutinib 0.054 | [1] -0.013 | ralimetinib 0.038 | [2] -0.076 | [3] 0.006 | [4] 0.011 | [5] -0.056 | [6] -0.023 | [7] -0.009 | [8] 0.001 | vemurafenib 0.031 | [9] 0.037 | barasertib 0.004 | [10] 0.072 | volasertib -0.019 | [11] 0.002 | [12] 0.065 | [13] 0.008 | saracatinib 0.072 | sotrastaurin -0.022

PCYOX1L (UniProt Q8NBM8)
inactive: ibrutinib 0.018 | [1] -0.013 | ralimetinib -0.016 | [2] -0.025 | [3] -0.055 | [4] 0.011 | [5] 0.212 | [6] 0.011 | [7] 0.03 | [8] -0.053 | vemurafenib 0.058 | [9] 0.058 | barasertib -0.004 | [10] -0.001 | volasertib 0.005 | [11] -0.023 | [12] -0.012 | [13] 0.124 | saracatinib -0.012 | sotrastaurin 0.027

PDLIM4 (UniProt P50479)
inactive: ibrutinib 0.014 | [1] 0.003 | ralimetinib -0.009 | [2] -0.027 | [3] -0.006 | [4] -0.025 | [5] -0.003 | [6] 0.008 | [7] 0.001 | [8] -0.039 | vemurafenib 0.01 | [9] 0.016 | barasertib -0.059 | [10] 0.028 | volasertib 0.006 | [11] 0.013 | [12] 0.003 | [13] 0.057 | saracatinib 0.004 | sotrastaurin -0.02
